Entries after “also recorded” stand apart in the source; their conditions may differ. Some entries share one result that the patent states for a list of compounds. For some assays here: At least one compound was matched to its structure with a doubt left. Some ranges recur; such a range may be that of the whole group of compounds.
Tests used:
Hair nuance test = experiment: Hair nuance test
Description: 35 g of bleaching powder was mixed with 50 mL of developer then applied onto undyed black hair (wrapped in aluminium foil to enhance the bleaching process) and left on for 45 min. The hair was then rinsed with deionized water and shampoo and left to dry. This process was repeated twice.
Hair dye formulations were prepared from N1-N13 according to methods reported (New Journal of Chemistry. 2019; 43(41):16188-99), and with the compositions stated in Table 11 Bleached hair samples were immersed into the respective formulations for 20 min, then air dried for 20 min. Then they were shampooed twice and treated with conditioner for 5 min.
SkinColorCatch (Delfin Technologies Ltd, Kuopio, Finland) was used to measure CIELAB tristimulus L*, a* and b* values of the dyed hair samples and baseline L0, a0, b0 values from untreated hair. The difference in colour tone (ΔH) and the total colour difference (ΔE) were then derived from the values obtained with the equations below:
ΔH=√{square root over ((a*−a0)^2+(b*−b0)^2)}
ΔE=√{square root over ((L*−L0)^2+(a*−a0)^2+(b*−b0)^2)}

IL-8 = IL-8 release assay (ELISA) in THP-1 cells; assay type: cell-based, human; conditions: 24 h
Description: (§1) CV75 values (concentration showing 75% of THP-1 cell survival) were determined as per the procedure described above in section A of this method. The IL-8 and IL-1α release assay was performed as described in Toxicol In Vitro. 2003, 17(3), 311-321. A Chemokine immunosorbent assay Bio-legend ELISA Max kit was used to quantify the levels of available IL-8 and IL-1α protein. The supernatant media of untreated THP-1 cells was treated with standards, test samples N1-N13 and DMSO in 96 well plate and then was recovered after 24 h of culture. IL-8 and IL-1α was measured by ELISA in 96-well microtiter plates according to the manufacturer protocol (Biolegend, ELISA MAX™, Singapore).

IL-1α = IL-1α release assay (ELISA) in THP-1 cells; assay type: cell-based, human; conditions: 24 h
Description: as §1

[1] = system: cysteine heptapeptide (Ac-RFAACAA-COOH) and lysine heptapeptide (Ac-RFAAKAA-COOH); experiment: Direct Peptide Reactivity Assay (DPRA); assay type: biochemical; conditions: from mean peptide depletion
Description: The assay was conducted on N1-N13 in triplicates with the respective solvent used to prepare compound stock solutions as control. A stock concentration of 20 mM was prepared instead of the recommended 100 mM by OECD due to scarcity of compounds. The various constituents of the incubation mixture were freshly prepared to prevent stability issues that could cause variations in results. An incubation mixture with the recommended peptide to test compound ratios of 1:10 for cysteine heptapeptide and 1:50 for lysine heptapeptide (OECD. Test No. 442C: In Chemico Skin Sensitisation 2020) was prepared then incubated at 25° C. for 24 h in a shaking incubator (Toxicol Sci. 2012; 129(2):421-31).
At 24 h, the incubation mixture was quenched with 75 μL of 95% ACN/H2O containing 200 μM Leucine Enkephalin (Internal Standard). For cysteine DPRA, 100 μL of quenched mixture was spiked into 90 μL of 2% ACN/H2O and 10 μL of freshly prepared 0.016 mM 1,4-Dithiothreitol (DTT) solution. DTT maintains the integrity of thiol groups by preventing the dimerization of thiol groups and degradation of di-adducts to mono-adducts. This second mixture was then incubated at 40° C. for 30 min in a shaking incubator. For lysine DPRA, 10 μL of quenched mixture was spiked into 190 μL of 2% ACN/H2O. […]

[2] = Skin permeation study, Franz diffusion cell; assay type: in vitro ADME; conditions: porcine ear skin, 8 h
Description: In each Franz cell, a piece of pig ear skin prepared to a thickness of […] was clamped securely. 5 mL of PBS solution was added to the receiver compartment which was purged of air bubbles to ensure maximal contact of the skin piece with the solution. Donor solution was prepared by dissolving N1-N13 in deionized water at 1% w/v, and 900 μL was added to the donor compartment. The study was conducted for 8 h, and aliquots of 200 μL were removed from the receiver solution and topped up with fresh PBS at each timepoint of 15-minutes intervals for the first hour and every hour after that.
For mass balance, at the end of 8 h, skin pieces and swabs of the top and bottom surface of the skin were collected and stored in ACN for N1-N13 extraction. Donor solution and receiver solution were also collected.
The aliquot samples collected were subjected to 2-step extraction using 750 μL of dichloromethane (DCM). […] The solvent was dried using the TurboVap, and then reconstituted with 198 μL of 0.1% formic acid in 50% methanol in water and spiked with 2 μL of ANP (internal standard). The processed aliquot samples and mass balance samples were then sent for analysis using LC-MS/MS. The compounds' steady state fluxes and permeability coefficients were then calculated by fitting the solution to Fick's […] of diffusion at the steady state (linear part) of each experimental cumulative amount curve.

SMILES	IL-8 release, times lower than PPD (IL-8)	IL-1α release, times lower than PPD (IL-1α)	other results
Nc1ccc(N)c(OCC2CO2)c1 (centres unmarked) [Compound N4, 2-(oxiran-2-ylmethoxy)benzene-1,4-diamine]	–	–	hair nuance against comparators PPD, ME-PPD and PTD (Hair nuance test): deeper shades than the comparators PPD, ME-PPD and PTD
COCCOCCOc1cc(N)ccc1N [Compound N5, 2-[2-(2-methoxyethoxy)ethoxy]benzene-1,4-diamine]	2-3	2-3	–
N#CCOc1cc(N)ccc1N [Compound N6, 2-(2,5-diaminophenoxy)acetonitrile]	–	–	sensitizing potential (DPRA) [1]: weak sensitizing potential; skin permeation and amount recovered in skin compared to PPD [2]: significantly lower skin penetration compared to PPD; also recorded: almost three orders of magnitude less than those of PPD; hair nuance against comparators PPD, ME-PPD and PTD (Hair nuance test): deeper shades than the comparators PPD, ME-PPD and PTD
COCCOc1cc(N)ccc1N [Compound N7, 2-(2-methoxyethoxy)benzene-1,4-diamine]	2-3	2-3	–
C=C(C)Oc1cc(N)ccc1N [Compound N12, 2-(prop-1-en-2-yloxy)benzene-1,4-diamine]	2-3	2-3	–
CNCCOc1cc(N)ccc1N [Compound N13, 2-(2-(methylamino)ethoxy)benzene-1,4-diamine]	2-3	2-3	–
O=[N+]([O-])c1ccc(Cl)c([N+](=O)[O-])c1 [DNCB]	–	–	IL-8 release, times higher than hair dye standards (IL-8): 2-3; IL-1α release, times higher than hair dye standards (IL-1α): 2-3

From US20240197596A1, “COMPOUNDS USEFUL AS HAIR DYES” (National University of Singapore, priority 2021, published 2024)
